Assay results taken from PubChem BioAssay AID2685 (National Center for Advancing Translational Sciences (NCATS), 2010).
Some of the results follow. The main result of the screen is listed elsewhere. These columns were measured beside it and carry no call. The list favours compounds with an active or inconclusive main result. Words in brackets tell the shape of the fitted curve; partial curves, single points and poor fits give uncertain potencies.

Experiment: qHTS Assay for Lipid Storage Modulators in Drosophila S3 Cells;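 as to cell number change: cells counted by Cell Tracker Red CMTPX staining in the red channel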
Details: BODIPY lipid droplet fluorescence, 18-24 h; for cell number change: measured here: cell count max response, cells fed with added oleic acid
How it was run: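 Laser-scanning cytometry quantifies lipid droplet accumulation (500–530 nm total intensity; droplet/cell object ratio) in oleic acid-fed (400 uM added) Drosophila S3 cells treated with a concentration series. 20 uM Triacsin C defined 100% inhibition.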

[1] = measured here: lipid fluorescence (Fed channel) AC50, cells fed with added oleic acid
[2] = measured here: cell number channel AC50, cells fed with added oleic acid

| SMILES | cell number change [%] | AC50 [1] | AC50 [2] |
| --- | --- | --- | --- |
| CCO[C@@H]1OC(C(=O)NC2CC2)=C[C@H](c2ccc(C(F)(F)F)cc2)[C@H]1CCCO | 19.7 | 2.59 µM [rising, full curve, poor fit] | – |
| COCCn1c(-c2ccc(Cl)cc2)cnc1SCC(=O)NCc1cccs1 | 58.4 | 5.17 µM [rising, single point] | 20.6 µM [rising, single point] |
| Cc1c(CN2CCC(CO)(CCOc3ccccc3)CC2)[nH]c2c(Cl)cccc12 | -49.4 | 32.6 µM [falling, partial curve, poor fit] | 18.4 µM [falling, single point] |
| CCc1ccc(NC(=O)CNCc2ccc(OC)c(OC)c2)cc1 | 23 | – | – |
| O=C(c1ccc(F)cc1)N1CCC(O)(c2cccnc2)CC1 | 20.4 | 0.82 µM [falling, full curve, poor fit] | 5.17 µM [falling, single point] |
| Cc1[nH][nH]c(=O)c1C=NCc1cccnc1 | 13.9 | 0.00651 µM [rising, full curve, poor fit] | 0.00517 µM [rising, full curve, poor fit] |
| Cc1ccc(C(=O)Oc2ccc3c(c2)ncn3C)cc1 | 14.4 | – | – |
| Cc1ccc(C)c(NC(=O)CSc2nnc(CNC(=O)c3ccco3)n2C)c1 | 7.39 | 6.51 µM [rising, partial curve] | – |
| CC(=O)c1ccc(S(=O)(=O)Nc2ccc(C(=O)NCCCn3ccnc3)cc2)cc1 | -54.9 | 29.1 µM [falling, single point] | 16.4 µM [falling, single point] |
| Cc1onc(-c2ccccc2Cl)c1C(=O)Nc1nn[nH]n1 | 39 | 29.1 µM [rising, single point] | 4.11 µM [rising, full curve] |
| Cc1ccc(C)c(N2CCN(C(=O)COc3cc(=O)n(C)c4ccccc34)CC2)c1 | -27.4 | 4.11 µM [rising, partial curve, poor fit] | – |
| O=C1CN(C(=O)c2ccc(F)c(S(=O)(=O)N3CCOCC3)c2)c2ccccc2N1 | 34.3 | 25.9 µM [rising, single point] | 6.51 µM [rising, single point] |
| O=C1CCCC2=C1C(c1c(Cl)nc3sccn13)C1=C(CCCC1=O)N2 | 27.6 | – | – |
| Cc1ccc(NC(=O)c2cc(-c3ccccc3)nn2-c2ccccc2)cc1 | 0.792 | 2.91 µM [rising, single point] | 3.26 µM [rising, partial curve] |
| N#Cc1c(C(F)(F)F)cc(-c2ccccc2)nc1SCc1nc(N)nc(N2CCOCC2)n1 | -61.1 | – | 29.1 µM [falling, single point] |
| COC(=O)C1=C(C)Nc2ncnn2C1c1ccc(OCc2ccccc2)cc1 (stereo not drawn) | 42.5 | 1.46 µM [rising, partial curve] | 1.03 µM [rising, full curve] |
| Cc1cc(C(=O)CN2C(=O)C(=O)N(Cc3ccccc3)C2=O)c(C)n1-c1ccc2c(c1)OCCO2 | 22.2 | – | 0.411 µM [rising, full curve, poor fit] |
| Cc1ccccc1CC(=O)N1CCCc2ccccc21 | -20.6 | 18.4 µM [falling, single point] | – |
| Cc1ccccc1-n1nc2c(c1NC(=O)c1cc3ccccc3oc1=O)CS(=O)(=O)C2 | – | 0.461 µM [rising, full curve] | 0.116 µM [rising, full curve] |
| O=C(CN1CCN(C(=O)C2COc3ccccc3O2)CC1)Nc1ccccc1 (stereo not drawn) | -48.8 | – | 1.84 µM [falling, partial curve, poor fit] |
| CN1C(=O)/C(=C\c2ccncc2)SC1=Nc1ccccc1 | 12.9 | 1.84 µM [rising, partial curve] | – |
| Cc1c(C(=O)Nc2ccccc2N2CCN(C)CC2)oc2ccc(F)cc12 | -33.8 | 29.1 µM [falling, single point] | 20.6 µM [falling, single point] |
| COc1ccc(N2C(=O)CC3(CCCC3)CC2=O)cc1 | -3.17 | – | 6.51 µM [rising, single point] |
| Cc1ccc2nc(Nc3nc(C)cc(C(F)(F)F)n3)nc(C)c2c1 | 46.2 | 7.31 µM [rising, partial curve] | 9.2 µM [rising, partial curve] |
| CC(Sc1nc(N)cc(N)n1)C(=O)NCC1CCCO1 (stereo not drawn) | -55.4 | 20.6 µM [falling, single point] | 16.4 µM [falling, single point] |
| COc1ccccc1N1C(=N)S/C(=C\c2ccc(-c3ccccc3C(=O)O)o2)C1=O | 0.487 | 18.4 µM [rising, single point] | – |
| CCOC(=O)[C@H]1[C@H]2COc3ccc(OC)cc3[C@@H]2N2C(=O)CN(Cc3ccc(C)cc3)C(=O)[C@@]12C | 17.4 | – | – |

For reference, some entries already given:

| SMILES | cell number change [%] | AC50 [1] | AC50 [2] |
| --- | --- | --- | --- |
| CN1C(=O)/C(=C\c2ccncc2)SC1=Nc1ccccc1 | 12.9 | 1.84 µM [rising, partial curve] | – |
| Cc1c(C(=O)Nc2ccccc2N2CCN(C)CC2)oc2ccc(F)cc12 | -33.8 | 29.1 µM [falling, single point] | 20.6 µM [falling, single point] |
| COc1ccc(N2C(=O)CC3(CCCC3)CC2=O)cc1 | -3.17 | – | 6.51 µM [rising, single point] |

Next part.

| SMILES | cell number change [%] | AC50 [1] | AC50 [2] |
| --- | --- | --- | --- |
| COC(=O)Cn1c(CCS(=O)(=O)c2ccc(C)c(C)c2)nc2ccccc21 | – | 6.51 µM [rising, partial curve, poor fit] | 4.11 µM [rising, single point] |
| COc1ccc(OC)c(NC(=O)N2CCCC(C(=O)c3ccccc3OC)C2)c1 (stereo not drawn) | -29.4 | 29.1 µM [falling, partial curve, poor fit] | – |
| Cc1ccc(C(=O)OCC(=O)Nc2cc(F)ccc2F)cc1NC(=O)c1ccco1 | – | 0.146 µM [rising, full curve, poor fit] | 0.291 µM [rising, partial curve, poor fit] |
| CC(C)(C)c1ccc(-n2ncc3c2CCCC3NC(=O)CCn2cncn2)cc1 (stereo not drawn) | – | 29.1 µM [falling, single point] | – |
| N#Cc1ccc(-c2ccc(F)cc2)nc1Sc1ccc(F)cc1 | 123 | 0.82 µM [falling, full curve] | – |
| Cc1cc(C)cc(C(=O)NCCC(=O)NCc2cc(=O)n(C)c(=O)n2C)c1 | -17.6 | 2.06 µM [rising, single point] | – |
| CC[N+](CC)(CC)C/C(N)=N/O | 5.77 | 0.0651 µM [rising, single point] | – |
| COc1ccccc1C(=O)COC(=O)c1cccc(-n2cnnn2)c1 | 26 | 4.61 µM [rising, single point] | – |
| CC(=O)/C(C#N)=C1\NC(=O)C(Cc2ccccc2C)S1 (stereo not drawn) | -47.9 | 9.2 µM [falling, partial curve] | 1.84 µM [falling, partial curve, poor fit] |
| Cc1c(NS(=O)(=O)c2cccc(C(=O)NCc3ccccc3)c2)c(=O)n(-c2ccccc2)n1C | 66.9 | – | 6.51 µM [rising, full curve, poor fit] |
| O=c1cc(O)c2ccccc2n1Cc1ccccc1F | 5.14 | – | – |
| CC(CCc1ccccc1)NC(=O)COC(=O)C(CCC(N)=O)NC(=O)c1ccc(F)cc1 (stereo not drawn) | 10.7 | 2.59 µM [falling, partial curve] | 2.59 µM [falling, partial curve] |
| Cc1c(Cl)cnc(NC(=O)COC(=O)c2cccc(S(=O)(=O)N3c4ccccc4CC3C)c2)c1Cl (stereo not drawn) | -0.0784 | 32.6 µM [rising, single point] | – |
| Cc1ccc(C(C(=O)NCC2CCCO2)N(C(=O)c2snc(C(N)=O)c2N)c2ccc(C)c(C)c2)o1 (stereo not drawn) | 6.67 | – | – |
| COc1ccc(NC(=O)/C(Cl)=C(/Cl)S(=O)Cc2ccccc2)cn1 (stereo not drawn) | -44 | 10.3 µM [falling, partial curve] | 5.8 µM [falling, partial curve] |
| Nc1nc(COC(=O)C2CC(=O)N(Cc3ccccc3)C2)nc(Nc2ccccc2)n1 (stereo not drawn) | 11.7 | 29.1 µM [rising, single point] | – |
| CCn1c(SCC(=O)c2ccc3c(c2)OCCO3)nnc1-c1ccco1 | 22.3 | 0.731 µM [falling, full curve, poor fit] | – |
| COc1ccc2[nH]cc(C(=O)CN3CCC(C)CC3)c2c1 | 8.99 | 29.1 µM [rising, single point] | – |
| COc1ccc(OCC(O)CNC2CCCC2)cc1 (stereo not drawn) | 17.1 | 4.11 µM [rising, full curve] | – |
| CNc1nc2c(C)cccn2c(=O)c1C=NCc1ccccc1 | 136 | – | 3.66 µM [rising, full curve] |
| O=C(C1=C(O)C(=O)N(c2nc3ccc(Cl)cc3s2)C1c1ccco1)c1ccco1 (stereo not drawn) | 13.8 | 0.206 µM [rising, full curve, poor fit] | 0.291 µM [rising, full curve, poor fit] |
| O=C(CCN1CCN(c2ccccc2)CC1)Nc1ccc(Cl)cc1 | -35.2 | 5.17 µM [falling, full curve] | 4.11 µM [falling, full curve, poor fit] |
| CN1CCCC(OC(=O)c2cccc(Cl)c2)C1 (stereo not drawn) | -55 | – | 29.1 µM [falling, single point] |
| CN1C(=O)C(C)(C)c2cc(S(=O)(=O)NCc3ccc(C(=O)NCc4ccco4)cc3)ccc21 | 20.7 | 13 µM [rising, partial curve] | – |
| Cc1cc(=O)oc(C)c1C(=O)NCCNC(=O)c1c(C)cc(=O)oc1C | -20.8 | 14.6 µM [falling, partial curve] | 6.51 µM [falling, single point] |
| O=C(Nc1ccc(F)cc1)c1ccc2nc[nH]c2c1 | 44.2 | 0.103 µM [rising, full curve, poor fit] | 0.00517 µM [rising, full curve, poor fit] |
